The whole screen tested about 320,000 compounds, of which about 22,000 (6.9%) were called active. Inconclusive results, whose numbers are uncertain, are shown with a selection of clear calls. The call rests on the fitted dose curve; in most records, active means well fitted inhibition curve with a large enough effect; inconclusive means small, poorly fitted or top-dose-only effect, or another doubt; inactive means no such curve, though single readings can be large or run the other way. Potencies beside an inconclusive call are fits to weak or partial responses and may not hold up.
experiment: Primary qHTS for delayed death inhibitors of the malarial parasite plastid, 96 hour incubation; settings: P. falciparum luciferase reporter growth; series mostly up to 28.7 µM
How it was run: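 Readout is luminescence from an integrated firefly luciferase in P. falciparum. Red cells, 2% hematocrit and 0.05% parasitemia final, were cultured with compound through two parasite generations (96 hours) at 37 C, 5% CO2.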
Potency means the concentration at half of the fitted maximal effect.

SMILES	Potency
CC(C)C(NS(=O)(=O)c1cccc2nsnc12)C(=O)NCCC1=CCCCC1 (centres undefined)	inconclusive: 0.165 µM [inhibitor, full curve, poor fit]
Cc1cc(Cl)ccc1OCC(=O)Nc1nc(-c2cccnc2)cs1	inactive
CC(CN)(NS(=O)(=O)c1ccccc1)c1ccccc1 (centres undefined)	inconclusive: 18.5 µM [inhibitor, single point]
CCCCC(c1nnnn1C1CCCC1)N1CCN(C2CCCC2)CC1 (centres undefined)	inconclusive: 13.1 µM [inhibitor, single point]
C[C@]12CCC3C(CCC4=C(Cl)C(=O)CC[C@@]43C)C1CCC2O (some centres undefined)	active: 10.7 µM
COc1ccc(NS(=O)(=O)c2cc(N/C(=N\S(=O)(=O)c3ccccc3)c3ccc(F)cc3)ccc2Cl)cc1	active: 10.4 µM
COc1ccc2sc(NC(C)=O)nc2c1	inconclusive: 20.8 µM [inhibitor, partial curve, poor fit]
O=[N+]([O-])c1ccc(COc2cccc3cccnc23)cc1	inactive
CN(C)c1cccc(NC(=O)c2ccco2)c1	inactive
Cn1c(=O)c2sccc2n2c(CCCC(=O)NC3CCN(Cc4ccccc4)CC3)nnc12	inconclusive: 6.57 µM [inhibitor, partial curve]
CSCCC(NC(=O)COc1ccccc1)C(=O)NCCOc1ccc(C)cc1 (centres undefined)	inconclusive: 16.5 µM [inhibitor, single point]
CC(C)(C)c1ccc(C2(C)NC(=O)N(CC(=O)Nc3ccc4c(c3)OCO4)C2=O)cc1 (centres undefined)	inconclusive: 18.5 µM [inhibitor, single point]
CCOC(=O)C1=C(COC(=O)c2cc(S(=O)(=O)N(C)C)ccc2C)NC(=O)NC1C (centres undefined)	inconclusive: 16.5 µM [inhibitor, single point]
CCc1nc(SCC(=O)N2CCCc3ccccc32)c2oc3ccccc3c2n1	inconclusive: 9.28 µM [inhibitor, partial curve, poor fit]
CCn1c(=O)cc(OCC(=O)NC2CCCCC2)c2ccccc21	inconclusive: 4.15 µM [inhibitor, partial curve, poor fit]
Cc1nc([N+](=O)[O-])c(C(=O)OCc2cccc(Br)c2)n1C	active: 7.38 µM
N[C@@H]1CONC1=O	inconclusive: 9.53 µM [inhibitor, partial curve, poor fit]
COc1cccc(N=C2SC(CC(=O)Nc3ccccc3)C(=O)N2Cc2ccccn2)c1 (centres undefined)	inconclusive: 18.5 µM [inhibitor, single point]
O=c1[nH]c(CSc2ncc(C(F)(F)F)cc2Cl)nc2ccccc12	inconclusive: 18.5 µM [inhibitor, single point]

Structures above with a furan ring, fused or not (2):
SMILES	Potency
CN(C)c1cccc(NC(=O)c2ccco2)c1	inactive
CCc1nc(SCC(=O)N2CCCc3ccccc32)c2oc3ccccc3c2n1	inconclusive: 9.28 µM [inhibitor, partial curve, poor fit]

Reference: PubChem BioAssay AID504834 (National Center for Advancing Translational Sciences (NCATS), 2011)
